{
  "sequences": {"note": "Protein sequences, listed by entry. Tags and fused reporters are not part of them.", "UniProt Q60857": "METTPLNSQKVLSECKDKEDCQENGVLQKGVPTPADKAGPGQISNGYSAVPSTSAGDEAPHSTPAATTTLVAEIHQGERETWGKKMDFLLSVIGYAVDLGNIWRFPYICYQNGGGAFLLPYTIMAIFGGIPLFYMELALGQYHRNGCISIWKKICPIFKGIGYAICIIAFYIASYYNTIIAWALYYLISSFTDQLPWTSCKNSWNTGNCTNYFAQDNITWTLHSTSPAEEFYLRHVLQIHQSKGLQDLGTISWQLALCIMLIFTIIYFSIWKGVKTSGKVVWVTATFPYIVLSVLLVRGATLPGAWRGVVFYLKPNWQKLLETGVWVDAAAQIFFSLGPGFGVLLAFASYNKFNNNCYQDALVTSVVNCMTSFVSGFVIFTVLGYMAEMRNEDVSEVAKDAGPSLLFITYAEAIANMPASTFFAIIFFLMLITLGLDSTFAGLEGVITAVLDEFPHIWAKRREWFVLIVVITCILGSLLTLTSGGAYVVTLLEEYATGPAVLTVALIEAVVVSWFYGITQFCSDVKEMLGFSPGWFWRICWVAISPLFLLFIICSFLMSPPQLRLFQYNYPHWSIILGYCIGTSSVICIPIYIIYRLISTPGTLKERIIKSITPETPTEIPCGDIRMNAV"},
  "source": "paper PMC6392109",
  "target": "serotonin transporter (SERT), endogenous in mouse brain (mouse (endogenous in mouse brain)) (UniProt Q60857)",
  "assay": "co-IP; mouse brain lysate; immunoprecipitation with anti-SERT antibody (sc-1458, 1:100), no antibody as negative control; western blot of the eluate for SERT and Flot1; Flot1 KO and SERT-KO tissue as controls",
  "note": "These are yes or no findings as the source states them, for the method shown. In cells and extracts the contact can be indirect. Some binding calls cover weakened binding; strength is not graded here.",
  "data": [
    {"binder": "Flotillin-1 (Flot1), endogenous in mouse brain (protein, UniProt O08917 1-428) MFFTCGPNEAMVVSGFCRSPPVMVAGGRVFVLPCIQQIQRISLNTLTLNVKSEKVYTRHGVPISVTGIAQVKIQGQNKEMLAAACQMFLGKTEAEIAHIALETLEGHQRAIMAHMTVEEIYKDRQKFSEQVFKVASSDLVNMGISVVSYTLKDIHDDQDYLHSLGKARTAQVQKDARIGEAEAKRDAGIREAKAKQEKVSAQCLSEIEMAKAQRDYELKKATYDIEVNTRRAQADLAYQLQVAKTKQQIEEQRVQVQVVERAQQVAVQEQEIARREKELEARVRKPAEAERYRLERLAEAEKAQLIMQAEAEAESVRMRGEAEAFAIGARARAEAEQMAKKAEAFQMYQEAAQLDMLLEKLPQVAEEISGPLTSANKITLVSSGSGTMGAAKVTGEVLDILSRLPESVERLTGVSISQVNHNKPLRTA", "values": [
      {"measurement": "binding", "result": "binds"}
    ]}
  ]
}
